Each substance was assayed on HLA peptide pools from tumor and normal tissue samples (assay: Identification and relative LC-MS quantitation of HLA-presented tumor associated peptides (presentation profiles)). Settings: cancer entities on which the peptide was found presented (Table 8A); value = entity abbreviations.
Set-up: species or system human

Substance	Peptide Presentation on cancer entities
43 (DLKKLVDSL; listed as Homo sapiens) [compound 43]	CRC, NSCLCother, UBC
44 (HLTNRVLSL; listed as Homo sapiens) [compound 44]	HNSCC, NSCLCsquam
45 (RLKVALSTL; listed as Homo sapiens) [compound 45]	CCC, CLL, MEL, NSCLCadeno, OSCAR, SCLC, UEC
46 (DLRNKIIAA; listed as Homo sapiens) [compound 46]	CCC, GBC, HNSCC, MEL, NHL, NSCLCadeno, NSCLCother, NSCLCsquam, OSCAR, PACA, UBC
48 (ELALRQTV; listed as Homo sapiens) [compound 48]	HNSCC
49 (FLRVFTDSL; listed as Homo sapiens) [compound 49]	CLL, NHL, NSCLCother, SCLC
50 (TLRLLVAAL; listed as Homo sapiens) [compound 50]	CCC, HNSCC, OSCAR, UBC
51 (ERRVKVSSL; listed as Homo sapiens) [compound 51]	UEC
52 (ELILKHSL; listed as Homo sapiens) [compound 52]	HNSCC, NHL, NSCLCadeno, NSCLCother
53 (DLRKLKRQL; listed as Homo sapiens) [compound 53]	CLL, MEL, NSCLCadeno
56 (ILCGSRKMPL; listed as Homo sapiens) [compound 56]	NHL
57 (MPLKHYLL; listed as Homo sapiens) [compound 57]	HNSCC
58 (LPKKMKLL; listed as Homo sapiens) [compound 58]	PACA
59 (FDFRGKTKVF; listed as Homo sapiens) [compound 59]	NSCLCother
60 (MLHIKKAEV; listed as Homo sapiens) [compound 60]	MEL
61 (SIKKELVVL; listed as Homo sapiens) [compound 61]	GC, HNSCC, MEL, NSCLCadeno, NSCLCother, NSCLCsquam, PACA, UEC
62 (FMLAKEASL; listed as Homo sapiens) [compound 62]	NHL
64 (FILGREAGAL; listed as Homo sapiens) [compound 64]	BRCA, CCC, HNSCC
65 (NLLMRNVL; listed as Homo sapiens) [compound 65]	NSCLCsquam
67 (DMNTKRAIHTL; listed as Homo sapiens) [compound 67]	CLL
68 (DLKIPRYPV; listed as Homo sapiens) [compound 68]	HNSCC, NSCLCadeno
69 (ELARQRLL; listed as Homo sapiens) [compound 69]	HNSCC, NSCLCadeno, NSCLCsquam
70 (RPKGTPPL; listed as Homo sapiens) [compound 70]	BRCA, CCC, CRC, GBM, GC, HNSCC, MEL, NHL, NSCLCadeno, NSCLCsquam, RCC, UBC, UEC
71 (HIRIKHTF; listed as Homo sapiens) [compound 71]	HNSCC, NHL, NSCLCadeno, NSCLCsquam
72 (LPLAHHIQL; listed as Homo sapiens) [compound 72]	HNSCC
73 (MFPARGVPL; listed as Homo sapiens) [compound 73]	NSCLCsquam
74 (RLKLRYEGL; listed as Homo sapiens) [compound 74]	CLL
75 (YARLKNVLL; listed as Homo sapiens) [compound 75]	NSCLCadeno

Substance	Peptide Presentation on cancer entities
76 (HPRLKVNLL; listed as Homo sapiens) [compound 76]	CCC, NSCLCother, OSCAR, SCLC, UBC, UEC
77 (LPKLPVPPL; listed as Homo sapiens) [compound 77]	NSCLCadeno, NSCLCsquam
78 (DGHMKVFSL; listed as Homo sapiens) [compound 78]	HNSCC, NSCLCadeno, NSCLCsquam, PRCA
80 (EVYLRMYQL; listed as Homo sapiens) [compound 80]	BRCA, CCC, CLL, HNSCC, MEL, NHL, NSCLCadeno, NSCLCother, NSCLCsquam, OC, SCLC, UEC
81 (MYRKEQYL; listed as Homo sapiens) [compound 81]	NSCLCother, UEC
82 (SIRKRPML; listed as Homo sapiens) [compound 82]	NSCLCother
83 (FVLLRSVDL; listed as Homo sapiens) [compound 83]	BRCA, CCC, CLL, NHL, NSCLCother
84 (YITRQFVQF; listed as Homo sapiens) [compound 84]	NSCLCother
85 (QKPRKKKL; listed as Homo sapiens) [compound 85]	CLL
86 (RPIHHPLVL; listed as Homo sapiens) [compound 86]	BRCA, HCC
87 (QILQHHVL; listed as Homo sapiens) [compound 87]	GBC, HNSCC
88 (MLLCLSLEL; listed as Homo sapiens) [compound 88]	GBC, HNSCC, MEL, NSCLCadeno, NSCLCsquam, SCLC
89 (VPYTKVQL; listed as Homo sapiens) [compound 89]	BRCA, CCC, CRC, GBC, GC, HNSCC, MEL, NHL, NSCLCadeno, NSCLCsquam, PACA, PRCA, UBC, UEC
92 (TLKAMVQAW; listed as Homo sapiens) [compound 92]	MEL
94 (DQLLRHVM; listed as Homo sapiens) [compound 94]	MEL, NSCLCsquam
95 (SRNPRGFFL; listed as Homo sapiens) [compound 95]	PACA, UEC
96 (RPAGVFEL; listed as Homo sapiens) [compound 96]	NSCLCadeno
97 (EPVTKAEM; listed as Homo sapiens) [compound 97]	HNSCC
99 (NVKIRFLE; listed as Homo sapiens) [compound 99]	HNSCC
100 (VLLMGPLHL; listed as Homo sapiens) [compound 100]	NSCLCsquam
101 (FAFEKLIQF; listed as Homo sapiens) [compound 101]	MEL, PRCA
103 (IANLRVKNI; listed as Homo sapiens) [compound 103]	UEC
104 (FAFGEPREL; listed as Homo sapiens) [compound 104]	MEL, OSCAR
106 (HLHLLETSI; listed as Homo sapiens) [compound 106]	HNSCC
107 (LPKGLKDWQA; listed as Homo sapiens) [compound 107]	SCLC
109 (IPASHPVLTL; listed as Homo sapiens) [compound 109]	NSCLCother
110 (DAMTKHTL; listed as Homo sapiens) [compound 110]	NHL
